No constants are given. Whether binding was seen depends on the method and setting. Binding seen in cells or lysates may run through a third protein. Some entries that bind do so weakly or less than the wild type.
Biological target: GST-tagged cGAS (Addgene, Cat. No: 108676) [GST: P08515]
Test: GST pull-down: GST-cGAS on glutathione-sepharose beads with His-tagged TOP1, anti-TOP1 immunoblot

By UniProt entry, the sequences of proteins in these tests, tags left out. Where a name states a change or a piece, a line headed by the entry shows the natural chain unless it says otherwise.
UniProt P11387: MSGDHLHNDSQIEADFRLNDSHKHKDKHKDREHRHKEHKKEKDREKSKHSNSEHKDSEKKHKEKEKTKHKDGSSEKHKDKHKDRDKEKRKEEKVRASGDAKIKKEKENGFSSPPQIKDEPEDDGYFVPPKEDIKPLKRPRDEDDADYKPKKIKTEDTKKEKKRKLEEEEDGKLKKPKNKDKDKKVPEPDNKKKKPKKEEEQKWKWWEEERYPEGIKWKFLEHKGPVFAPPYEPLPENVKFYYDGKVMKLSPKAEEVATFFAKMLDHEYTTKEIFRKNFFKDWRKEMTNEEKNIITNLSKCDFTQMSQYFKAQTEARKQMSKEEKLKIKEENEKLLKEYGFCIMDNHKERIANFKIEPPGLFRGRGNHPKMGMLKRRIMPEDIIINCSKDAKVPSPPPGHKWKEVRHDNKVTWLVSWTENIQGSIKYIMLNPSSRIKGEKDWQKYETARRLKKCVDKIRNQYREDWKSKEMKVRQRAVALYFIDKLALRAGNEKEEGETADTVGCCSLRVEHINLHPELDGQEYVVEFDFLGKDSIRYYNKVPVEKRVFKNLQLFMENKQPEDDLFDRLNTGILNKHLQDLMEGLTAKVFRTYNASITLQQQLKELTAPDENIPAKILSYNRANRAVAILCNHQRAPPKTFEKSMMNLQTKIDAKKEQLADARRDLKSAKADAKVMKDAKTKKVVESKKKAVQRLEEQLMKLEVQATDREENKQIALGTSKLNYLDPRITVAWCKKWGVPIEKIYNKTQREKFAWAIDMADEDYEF

## His-tagged TOP1 (Sino Biological, Cat. No: 17455-H07B) (from UniProt P11387 1-765) (enzyme)
  binding: binds

Reference: patent publication US20230082929A1, “METHODS OF GENERATING AND USING SENESCENT-INDUCED CELLS FOR TREATMENT OF CANCER AND COMPOSITIONS RELATING THERETO” (The Wistar Institute of Anatomy and Biology, priority 2020, published 2023)
